Values joined by “and” are separate entries in the source; they are usually repeats but may differ in a detail not shown here. Equal entries are not always repeated. About 5,400 (1.8%) of roughly 300,000 compounds were called active. This list was built around the results that the source calls inconclusive (neither active nor inactive); the mix of calls is not that of the screen. The call rests on the fitted dose curve; tested in HEK293 cells. Where the call is inconclusive, the potency comes from a doubtful curve fit.
Assay: qHTS for inhibitors of binding or entry into cells for Marburg Virus
Details: Marburg virus pseudotyped entry inhibition, cell reporter; activity change, negative = inhibition: at 37.8 µM (top of the series) unless noted
On the % scale 0 is the no-effect control and ±100 the full control effect; potency means the concentration at half of the fitted maximal effect.

Which “activity change, negative = inhibition” value does the source give for `Nc1cccc2c1C(=O)N(C(=O)/C=C/c1cccc(Br)c1)C2=O` here?
Its value is inactive: -27.6% [at 46.1 µM].

Which Potency does the source give for `COc1ccc(OC)c(NC(=O)CSc2ccc3ccccc3c2)c1` here?
The Potency was inconclusive: 10 µM [inhibitor, partial curve].

With `CCOc1ccc(-c2nc(N)ncc2-c2ccccc2)c(O)c1` as the compound, how does the Potency read?
Its Potency is inconclusive: 35.5 µM [inhibitor, single point].

With `Cn1c(SCC(=O)c2ccc(F)cc2)nnc1-c1cnccn1` as the compound, how does the Potency read?
Its Potency is inconclusive: 18.3 µM [activator, single point].

Which Potency does the source give for `COc1cccc(/C=N/NC(=O)CNC(=O)C2COc3ccccc3O2)c1O` (configuration not stated) here?
Its Potency is inconclusive: 9.2 µM [inhibitor, partial curve].

With `Cc1ccsc1C1NC(=O)c2ccccc2N1` (configuration not stated) as the compound, how does the Potency read?
The Potency was inconclusive: 5.62 µM [inhibitor, single point].

With `CCOC(=O)c1nn(-c2cccc(OC)c2)c2nc(Nc3ccccc3)cc(=O)n12` as the compound, how does the “activity change, negative = inhibition” value read?
Its value is inactive: 16%.

Which “activity change, negative = inhibition” value does the source give for `COc1cccc(C(=O)CC(=O)C(=O)Nc2ccc(C)cc2Cl)c1` here?
The value was inactive: -28.9% [at 46.1 µM].

Which Potency does the source give for `O=C(COc1ccc(Cl)cc1)N1CCN(C(=O)c2cccs2)CC1` here?
Its Potency is inconclusive: 35.5 µM [inhibitor, single point].

Which “activity change, negative = inhibition” value does the source give for `O=C1OCC/C1=C\c1ccccc1O` here?
The value was inactive: -0.111%.

For `COC(=O)c1c(NC(=O)Cc2coc3cc(C)ccc23)sc2c1CCC2`, which Potency is on record?
Its Potency is inconclusive: 3.16 µM [inhibitor, single point].

With `N=c1sccn1Cc1ccc(Cl)cc1Cl` as the compound, how does the Potency read?
Its Potency is inconclusive: 5.17 µM [inhibitor, single point].

Which Potency does the source give for `CCOc1ccc(NC(=O)CN(C)C(=O)CCC2CCCCC2)cc1OCC` here?
Its Potency is inconclusive: 0.708 µM [inhibitor, full curve].

For `COc1nsnc1NS(=O)(=O)c1ccc(NC(=S)NC(=O)c2cccnc2)cc1`, which “activity change, negative = inhibition” value is on record?
Its value is inactive: 23.6% [at 46.1 µM].

With `Cc1c(C(=O)N(C)C(C)c2ccccn2)oc2c(F)cccc12` (configuration not stated) as the compound, how does the Potency read?
Its Potency is inconclusive: 20 µM [activator, partial curve, poor fit].

With `C1CCC(NC2=NCCC2)CC1` as the compound, how does the “activity change, negative = inhibition” value read?
Its value is inactive: 5.1%.

For `Cn1c(SCC(=O)N2CCCC2)nc2ccccc21`, which “activity change, negative = inhibition” value is on record?
Its value is inactive: 11.4% [at 46.1 µM].

For `O=C(NCc1ccc2c(c1)OCO2)C1CCC(CNc2c(N3CCCCC3)c(=O)c2=O)CC1` (configuration not stated), which “activity change, negative = inhibition” value is on record?
The value was inactive: -0.508%.

Which Potency does the source give for `Oc1ccc(-c2csc(-c3c[nH]c4ccccc34)n2)c(O)c1` here?
The Potency was inconclusive: 6.51 µM [activator, single point].

Which Potency does the source give for `Cc1cc(C)cc(NC(=O)c2ccccc2NC(=O)CCC(=O)O)c1` here?
Its Potency is inconclusive: 8.91 µM [activator, partial curve, poor fit].

For `O=C(C1CCCN(S(=O)(=O)c2cccc3nsnc23)C1)N1CCN(c2ccccc2)CC1` (configuration not stated), which Potency is on record?
The Potency was inconclusive: 11.2 µM [inhibitor, partial curve, poor fit].

For `O=C1NCN(c2ccccc2)C12CCN(CCCC(c1ccc(F)cc1)c1ccc(F)cc1)CC2`, which Potency is on record?
The Potency was active: 2.06 µM and active: 1.26 µM.

Which “activity change, negative = inhibition” value does the source give for `Cc1cc(C(=O)Nc2ccccc2)oc(=O)c1` here?
Its value is inactive: 7.8% [at 46.1 µM].

For `COc1ccc(OC(C)C(=O)Nc2ccc([N+](=O)[O-])cc2)cc1` (configuration not stated), which “activity change, negative = inhibition” value is on record?
The value was inactive: -29.2% [at 46.1 µM].

With `Nc1c(C(=O)Nc2ccccc2Cl)c2ccccn2c1C(=O)c1ccccc1` as the compound, how does the “activity change, negative = inhibition” value read?
Its value is inactive: -0.765% [at 46.1 µM].

Which Potency does the source give for `Cc1nc2ccccc2nc(=O)c1NNc1ccccc1` here?
The Potency was inconclusive: 11.6 µM [activator, partial curve, poor fit].

Which Potency does the source give for `Oc1ccc2ccccc2c1N=Nc1ccccn1` here?
Its Potency is inconclusive: 15.8 µM [inhibitor, single point].

Which “activity change, negative = inhibition” value does the source give for `O=C(C1CC(c2ccccc2O)=NO1)N1CCc2ccccc2C1` (configuration not stated) here?
Its value is inactive: 9.78%.

Which “activity change, negative = inhibition” value does the source give for `CCCSc1nnc(CNC(=O)C23CC4CC(CC(C4)C2)C3)n1Cc1ccccc1` here?
Its value is inactive: -26.4%.

Which Potency does the source give for `O=C(CSc1nc(Nc2ccccc2)nc(N2CCOCC2)n1)Nc1ccccc1Cl` here?
The Potency was inconclusive: 6.51 µM [inhibitor, full curve, poor fit].

Which “activity change, negative = inhibition” value does the source give for `Cc1nn(CC(=O)Nc2ccccn2)c(C)c1Br` here?
The value was inactive: 6.35%.

With `N#C/C(=C(/O)COC(=O)Cc1c[nH]c2ccccc12)c1nc2ccccc2[nH]1` as the compound, how does the Potency read?
Its Potency is inconclusive: 14.6 µM [inhibitor, partial curve].

With `CCOCC(=O)NC1CCc2cc(OC)c(OC)c(OC)c2-c2ccc(SC)c(=O)cc21` (configuration not stated) as the compound, how does the “activity change, negative = inhibition” value read?
The value was inactive: -16.8%.

For `CN1CCN(c2nc(-c3ccccc3)ncc2S(=O)(=O)c2ccccc2)CC1`, which Potency is on record?
The Potency was inconclusive: 35.5 µM [inhibitor, single point].

Which Potency does the source give for `COc1cc(NCc2ccccc2O)c2ncccc2c1` here?
The Potency was inconclusive: 11.2 µM [inhibitor, partial curve, poor fit].

For `Cc1ccc(C(C)C)c(OCc2nn(CC(=O)c3ccc(OC(F)F)cc3)c3[n+]2CCCCC3)c1`, which Potency is on record?
The Potency was inconclusive: 35.5 µM [inhibitor, single point].

With `CCSc1ncc(Cl)c(C(=O)Nc2nc3ccc(S(C)(=O)=O)cc3s2)n1` as the compound, how does the Potency read?
The Potency was inconclusive: 7.08 µM [activator, partial curve, poor fit].

With `CC1CC(C)CN(S(=O)(=O)c2cc(C(=O)O)c(Cl)s2)C1` (configuration not stated) as the compound, how does the Potency read?
Its Potency is inconclusive: 10 µM [activator, partial curve, poor fit].

Which Potency does the source give for `O=C(CN1C(=O)C2CC=CCC2C1=O)Nc1nccs1` (configuration not stated) here?
The Potency was inconclusive: 8.91 µM [activator, partial curve, poor fit].

For `c1ccc(CCNc2ccc3c(c2)Cc2ccccc2-3)nc1`, which Potency is on record?
The Potency was active: 1 µM.

Which Potency does the source give for `O=C(NC1CCCCC1)N1CCN(C2CCCCC2)CC1` here?
The Potency was inconclusive: 4.61 µM [inhibitor, single point].

With `CCOC(=O)N/N=C\c1sccc1C` as the compound, how does the Potency read?
The Potency was inconclusive: 10 µM [activator, partial curve].

With `CCCC(=O)Nc1ccc(OC[C@@H](O)CNC(C)C)c(C(C)=O)c1` as the compound, how does the “activity change, negative = inhibition” value read?
The value was inactive: 15.9%.

Which Potency does the source give for `Cc1cccc(N=C2SC(C)CN2C(=O)CN2C(=O)NC3(CCCC3)C2=O)c1` (configuration not stated) here?
Its Potency is inconclusive: 14.1 µM [inhibitor, single point].

Which Potency does the source give for `CC(C)(C)c1ccc(C(=O)NCCOc2ccccc2F)cc1` here?
The Potency was inconclusive: 1 µM [inhibitor, full curve, poor fit].

Which “activity change, negative = inhibition” value does the source give for `Cc1cc(N2CCCC2=O)cc(C)c1CN1C(=O)c2ccccc2C1=O` here?
The value was inactive: 5.48%.

With `CC(=O)SCC[N+](C)(C)C` as the compound, how does the Potency read?
Its Potency is inconclusive: 12.6 µM [inhibitor, single point].

For `COc1cc(/C=N/NC(=O)CC23CC4CC(CC(C4)C2)C3)cc(Br)c1OCC(=O)N(C)C`, which Potency is on record?
Its Potency is inconclusive: 22.4 µM [inhibitor, single point].

Which Potency does the source give for `Cc1ccc(C)c(C(C)NC(=O)c2ccccc2Br)c1` (configuration not stated) here?
Its Potency is inconclusive: 7.94 µM [inhibitor, partial curve, poor fit].

For `OCCCNc1nc(-c2ccc(Cl)cc2)nnc1-c1ccc(Br)cc1`, which Potency is on record?
Its Potency is inconclusive: 35.5 µM [inhibitor, single point].

For `O=C1C=Cc2cccc3ccc(O)c1c23`, which “activity change, negative = inhibition” value is on record?
The value was inactive: -18% [at 46.1 µM].

With `Oc1ccccc1-c1n[nH]c(-c2ccccc2O)n1` as the compound, how does the Potency read?
The Potency was inconclusive: 22.4 µM [inhibitor, single point].

Which Potency does the source give for `Cc1sc2ncnc(N3CCC(C(=O)Nc4nc(-c5ccc(F)cc5)cs4)CC3)c2c1C` here?
Its Potency is inconclusive: 4.47 µM [inhibitor, full curve, poor fit].

With `COc1ccc(/C=C/C(=O)ONC2=NCCCCC2)cc1OC` as the compound, how does the Potency read?
The Potency was inconclusive: 31.6 µM [inhibitor, single point].

With `CCOC(=O)c1ccccc1NC(=O)c1cc(S(=O)(=O)N2CCOCC2)ccc1F` as the compound, how does the Potency read?
The Potency was inconclusive: 0.282 µM [activator, full curve, poor fit].

Which “activity change, negative = inhibition” value does the source give for `COc1cc(/C=N/NC(=O)C(Cc2c[nH]c3ccccc23)NC(=O)OCC(C)C)cc([N+](=O)[O-])c1O` (configuration not stated) here?
The value was inactive: -2.76%.

Which “activity change, negative = inhibition” value does the source give for `CCCn1c(CCC(=O)Nc2cc(OC)cc(OC)c2)nc2cccnc21` here?
Its value is inactive: 6.78% [at 46.1 µM].

For `O=C(NCCCN1CCCC1=O)c1cccc(S(=O)(=O)Nc2ccc(F)cc2)c1`, which “activity change, negative = inhibition” value is on record?
Its value is inactive: 16%.

Which Potency does the source give for `CCOc1ccccc1-c1nc(-c2ccc(NC(=O)Cc3ccc(OC)cc3)cc2)no1` here?
Its Potency is inconclusive: 15.8 µM [inhibitor, single point].

For `CC(C)c1cc(C(=O)NC2CCCCC2)no1`, which Potency is on record?
The Potency was inconclusive: 3.66 µM [activator, single point].

For `O=C(NCC1CCCO1)c1nn2c(c1Cl)NC(c1ccc(F)cc1)CC2C(F)(F)F` (configuration not stated), which “activity change, negative = inhibition” value is on record?
Its value is inactive: -14.4%.

Which Potency does the source give for `COCCCNC(=O)/C(C#N)=C/c1c(N2CCN(c3cccc(Cl)c3)CC2)nc2c(C)cccn2c1=O` here?
The Potency was inconclusive: 35.5 µM [inhibitor, single point].

With `CCN1CCN(CCCOc2ccc(-c3ccccc3)cc2)CC1` as the compound, how does the Potency read?
The Potency was inconclusive: 29.1 µM [inhibitor, single point].

With `Cc1cc(C(=O)CN2C(=O)C(=O)N(CCC3=CCCCC3)C2=O)c(C)n1C` as the compound, how does the Potency read?
Its Potency is inconclusive: 35.5 µM [activator, single point].

For `N=c1scc(-c2ccccc2)n1/N=C/c1ccco1`, which Potency is on record?
The Potency was inconclusive: 35.5 µM [inhibitor, single point].

Which Potency does the source give for `O=C(NC1CCCCC1)N1CCN(C(c2ccccc2)c2ccccc2)CC1` here?
Its Potency is inconclusive: 32.6 µM [inhibitor, single point].

Which Potency does the source give for `CCCc1nc2nc(C)c(NS(=O)(=O)c3ccc(CC(C)C)cc3)c(=O)n2[nH]1` here?
Its Potency is “inactive”.

Which Potency does the source give for `O=C(C[n+]1ccccc1)N/N=C/c1cccs1` here?
The Potency was inconclusive: 12.6 µM [activator, single point].

For `CCOC(=O)c1ccc(N2C(=O)c3[nH]nc(-c4ccc(C)cc4)c3C2c2cccs2)cc1` (configuration not stated), which Potency is on record?
The Potency was inconclusive: 8.91 µM [inhibitor, partial curve, poor fit].

Which Potency does the source give for `CC1(C)Cc2c(cnn2-c2ccc(F)cc2)C(NC(=O)c2ccoc2)C1` (configuration not stated) here?
The Potency was inconclusive: 10 µM [inhibitor, partial curve, poor fit].

With `CC(C)c1onc(C(=O)Nc2cccc(O)c2)c1[N+](=O)[O-]` as the compound, how does the “activity change, negative = inhibition” value read?
The value was inactive: 3.34% [at 46.1 µM].

Which Potency does the source give for `Cc1ccccc1-c1nnc(SCC(=O)Nc2cccnc2Cl)o1` here?
Its Potency is inconclusive: 1 µM [inhibitor, full curve, poor fit].

— PubChem BioAssay AID540276 (National Center for Advancing Translational Sciences (NCATS), 2011)
